# Results: PubChem BioAssay AID1671190 (National Center for Advancing Translational Sciences (NCATS), 2021)
# Chains of the proteins cited; added tags and fusions are not shown. Lines headed by an entry give the natural chain unless they say otherwise; changes in a name come on top.
# UniProt P18054: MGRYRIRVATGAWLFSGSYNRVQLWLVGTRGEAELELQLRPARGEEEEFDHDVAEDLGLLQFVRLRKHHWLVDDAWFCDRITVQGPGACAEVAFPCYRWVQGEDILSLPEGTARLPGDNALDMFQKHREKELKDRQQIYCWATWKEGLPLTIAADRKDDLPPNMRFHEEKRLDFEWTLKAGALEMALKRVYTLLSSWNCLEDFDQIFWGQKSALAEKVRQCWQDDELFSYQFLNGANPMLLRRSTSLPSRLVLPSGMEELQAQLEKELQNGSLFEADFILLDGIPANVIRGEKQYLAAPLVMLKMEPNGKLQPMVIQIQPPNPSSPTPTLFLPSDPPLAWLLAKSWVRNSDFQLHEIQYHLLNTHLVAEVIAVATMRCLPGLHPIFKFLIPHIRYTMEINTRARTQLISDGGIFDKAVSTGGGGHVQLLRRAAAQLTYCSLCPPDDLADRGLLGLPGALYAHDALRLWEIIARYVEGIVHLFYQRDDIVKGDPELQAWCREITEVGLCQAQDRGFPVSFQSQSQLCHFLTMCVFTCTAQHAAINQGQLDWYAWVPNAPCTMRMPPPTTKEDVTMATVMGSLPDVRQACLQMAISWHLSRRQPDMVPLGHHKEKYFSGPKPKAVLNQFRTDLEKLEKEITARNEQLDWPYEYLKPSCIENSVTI
# Several values for one entry are separate records, joined by “and”; a condition that tells them apart may be missing. Equal values may be shown once. The campaign covered roughly 580,000 compounds. About 6,100 (1.1%) were called active. This list was built around the results that the source calls inconclusive (neither active nor inactive); the mix of calls is not that of the screen. The call rests on the fitted dose curve; in most records, active means well fitted inhibition curve with a large enough effect; inconclusive means small, poorly fitted or top-dose-only effect, or another doubt; inactive means no such curve, though single readings can be large or run the other way. Potencies beside an inconclusive call are fits to weak or partial responses and may not hold up.
# Target: Polyunsaturated fatty acid lipoxygenase ALOX12 (Homo sapiens) (UniProt P18054)
# Assay: Primary qHTS assay for inhibitors of human arachidonate 12S-lipoxygenase (ALOX12): Round 2
# Conditions: purified 12hLO, xylenol orange hydroperoxide absorbance; activity change, negative = inhibition: at 108 µM (top of the series) unless noted
# Method in brief: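 Hydroperoxide product was detected by ferrous iron/xylenol orange as the 573 to 405 nm absorbance ratio. Arachidonic acid at 40 uM (final) was turned over for 30 min at room temperature by 150 nM human 12hLO, pH 7.0 Hepes buffer, after 15 min compound preincubation.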
# On the % scale 0 is the no-effect control and ±100 the full control effect; potency means the concentration at half of the fitted maximal effect.
Structure (SMILES),Potency,"activity change, negative = inhibition"
Cc1cnc(C(=O)N2CCOCC(CO)C2)cn1 (stereo unspecified),active: 50.1 µM,–
Cc1cc(/C=C(\C#N)C(=O)NCC2CCCO2)c(C)n1-c1ccc(Cl)cc1 (stereo unspecified),–,inactive: -0.12%
N=C1/C(=C\c2ccc(OC(=O)c3ccco3)cc2)C(=O)N=C2SC(N3CCCCC3)=NN12,–,inactive: 4.6%
Cc1c(NC(=S)NC(=O)c2cc3ccccc3o2)c(=O)n(-c2ccccc2)n1C,"inconclusive: 50.1 µM [inhibitor, partial curve, poor fit]",–
COc1cc(CNC(C)(C)CO)cc(Br)c1OCc1ccc(Cl)cc1Cl,"inconclusive: 35.5 µM [inhibitor, partial curve, poor fit]",–
Cc1ccccc1S(=O)Cc1ccc(C(=O)NC2CCCCCC2)o1 (stereo unspecified),"inconclusive: 126 µM [inhibitor, partial curve, poor fit]",–
CCOc1cccc2sc(NC(=O)c3ccc(S(=O)(=O)N4CCCc5ccccc54)cc3)nc12,"inconclusive: 63.1 µM [inhibitor, partial curve, poor fit]",–
O=c1cc(-c2cccnc2)oc2c(NCc3ccc(F)cc3)nccc12,"inconclusive: 12.6 µM [inhibitor, full curve, poor fit]",–
Cc1ccc(CCSc2ccc(C(C)C)cc2)cn1,–,inactive: -17%
Cc1ccc(C(=O)N2CCC3(CC2)CCN(Cc2cccs2)c2ccccc2O3)cc1,"inconclusive: 44.7 µM [inhibitor, partial curve]",–
CCN1CCN(C(=O)CS(=O)Cc2nc(-c3ccc(OC)c(OC)c3)oc2C)CC1 (stereo unspecified),"inconclusive: 126 µM [inhibitor, partial curve, poor fit]",–
CC(C)c1ccc(NC(=O)c2cc3c(s2)CCC3)cc1,"inconclusive: 28.2 µM [inhibitor, full curve, poor fit]",–
Cc1ccccc1CNC(=O)C(=O)NCCC1CCCCN1S(=O)(=O)c1cccs1 (stereo unspecified),–,inactive: -5.86%
COC(=O)c1ccc(N2CC3=C(C2=O)C(c2ccccc2)NC(=O)N3C)cc1 (stereo unspecified),"inconclusive: 112 µM [inhibitor, single point]",–
Cc1cc(Nc2cccc(Cl)c2)nc2ccc(NC(=O)C3CCC(C)CC3)cc12 (stereo unspecified),"inconclusive: 100 µM [inhibitor, single point]",–
COc1cccc(-c2sc3ccccc3c2-c2ccc(OCCN(C)C)cc2)c1,"inconclusive: 50.1 µM [inhibitor, partial curve, poor fit]",–
O=C(Cn1cc(SCc2cccc(F)c2)c2ccccc21)N1CCCC1,"inactive and inconclusive: 44.7 µM [inhibitor, partial curve, poor fit]",–
CCCOc1ccc(/C=C(/C#N)c2nc3ccccc3[nH]2)cc1OC,"inconclusive: 89.1 µM [inhibitor, single point]",–
Cc1ccc(-c2nc(C(=O)N3CCN(Cc4ccc5c(c4)OCO5)CC3)no2)cc1,"inconclusive: 11.2 µM [inhibitor, full curve]",–
Cc1ccc(C(=O)Nc2nc(C(C)(C)C)cs2)s1,"inconclusive: 56.2 µM [inhibitor, partial curve, poor fit]",–
CCC(=O)c1ccc2c(c1)N(CCCN(C)C)c1ccccc1S2,"inconclusive: 1.61 µM [inhibitor, partial curve, poor fit]",–
Cc1cc(C)c2c(CN3CCCCCCC3)cc(=O)oc2c1,"inconclusive: 44.7 µM [inhibitor, partial curve, poor fit]",–

Structure (SMILES),Potency,"activity change, negative = inhibition"
Cc1ccc(C(=O)Nc2ccc3nc(SCC(=O)N4CCc5ccccc54)sc3c2)cc1,–,inactive: -4.59%
CN(Cc1ccco1)c1ncncc1-c1ccoc1,"inconclusive: 25.1 µM [inhibitor, partial curve]",–
Cc1[nH]c2ccccc2c1C(=O)C(=O)Nc1ccc(F)c(Cl)c1,–,inactive: -4.33%
Cc1nc2cc(F)ccc2cc1C(=O)N1CCN(S(=O)(=O)c2ccccc2C#N)CC1,–,inactive: -4.03%
CCOc1ccc(OCC)c(NC(=O)c2nnn(Cc3cc(Br)ccc3OC)c2N)c1,inactive,–
CCC(=O)N1CCN(c2ccccc2NC(=O)c2ccc(C#N)cc2F)CC1,–,inactive: 12.9%
CCc1ccc(NC2=CC(=O)C(=O)c3ccccc32)cc1,"inconclusive: 79.4 µM [inhibitor, partial curve, poor fit]",–
Cn1ccc2c(-c3ccc(F)nc3)cc3c(c21)C1CCC3O1 (stereo unspecified),"inconclusive: 31.6 µM [inhibitor, partial curve, poor fit]",–
CC(=NNC(=S)Nc1ccccc1)c1ccccn1,"inconclusive: 28.2 µM [inhibitor, partial curve, poor fit]",–
CCCCC(=O)Nc1ccc(NC(=S)NC(=O)c2cccs2)cc1OC,"inconclusive: 50.1 µM [inhibitor, partial curve, poor fit]",–
Cc1cccc(C(=O)NC(=S)Nc2ccc(S(=O)(=O)N(C)c3ccccc3)cc2)c1,"inconclusive: 10 µM [inhibitor, partial curve, poor fit]",–
COc1cccc(NC(=O)CN(C)C(=O)[C@@H]2CCCN2C(=O)c2cccs2)c1,–,inactive: 26.5%
O=C(Nc1ccc(F)cc1)[C@@H]1C[C@@H](c2ccc(F)cc2)N([S+](=O)([O-])c2cccnc2)C1,"inconclusive: 39.8 µM [inhibitor, full curve]",–
Cc1c(N/N=C(\C#N)C(=O)c2ccccc2)c(=O)n(-c2ccccc2)n1C,"inconclusive: 14.1 µM [inhibitor, full curve]",–
CCC(=O)Nc1ccc2c(c1)nc(CCN1CCCCC1)n2C,"inconclusive: 56.2 µM [inhibitor, partial curve, poor fit]",–
COc1ccc(C)cc1CNCc1ccco1,"inconclusive: 0.631 µM [inhibitor, full curve, poor fit]",–
CC(=O)c1ccc(N2CCN(C(=O)C3CCN(S(=O)(=O)c4ccc(Br)s4)CC3)CC2)cc1,–,inactive: -11.8%
O=C(NCc1ccc2c(c1)OCCO2)N1CCN(S(=O)(=O)c2ccccc2)CC1,"inconclusive: 0.251 µM [inhibitor, single point]",–
S=c1[nH]nc(CCc2ccccc2)n1-c1ccccc1,"inconclusive: 50.1 µM [inhibitor, partial curve, poor fit]",–
O=C(Nc1nc2c(s1)CCCC2)c1ccc2ncsc2c1,"inconclusive: 44.7 µM [inhibitor, partial curve, poor fit]",–
Cc1cccc(C(C(=O)NC2CCCC2)N(C(=O)c2csnn2)C2CCCC2)c1 (stereo unspecified),"inconclusive: 89.1 µM [inhibitor, single point]",–
Cc1cnc(CNc2ncncc2-c2ccc(N(C)C)cc2)cn1,–,inactive: -22.2%

# Part of the list above, with bars between the fields.
Structure (SMILES) | Potency | activity change, negative = inhibition
Cc1[nH]c2ccccc2c1C(=O)C(=O)Nc1ccc(F)c(Cl)c1 | – | inactive: -4.33%
CCc1ccc(NC2=CC(=O)C(=O)c3ccccc32)cc1 | inconclusive: 79.4 µM [inhibitor, partial curve, poor fit] | –

# One compound at a time, from the list above.
# Cc1ccc(CCSc2ccc(C(C)C)cc2)cn1 reads activity change, negative = inhibition: inactive: -17%
# COc1cc(CNC(C)(C)CO)cc(Br)c1OCc1ccc(Cl)cc1Cl reads Potency: inconclusive: 35.5 µM [inhibitor, partial curve, poor fit]

# (listing goes on)

Structure (SMILES),Potency,"activity change, negative = inhibition"
Cc1[nH]c(C)c(S(=O)(=O)N2CCN(c3cccc(Cl)c3)CC2)c1C(=O)N1CCCCC1,"inconclusive: 112 µM [inhibitor, partial curve, poor fit]",–
CCCCn1c(=O)n(Cc2ccccc2F)c(=O)c2[nH]c(Cc3ccc(NC(C)=O)cc3)nc21,"inconclusive: 19.3 µM [inhibitor, partial curve, poor fit]",–
CCN(Cc1ccccc1)C(=O)CCS(=O)(=O)c1cc2c(cc1Cl)NC(=O)CO2,inactive,–
NC1CC(c2cc(NCCN3N=C(c4ccccc4)CCC3=O)ncn2)C1 (stereo unspecified),"inconclusive: 8.91 µM [inhibitor, full curve]",–
O=C(CN(Cc1ccccc1)C(=O)CCl)c1cccc(Br)c1,–,inactive: -22.1%
S=C(NCCc1ccccc1)NCCc1ccccc1,active: 50.1 µM,–
Cc1ccc(NC(=S)NCc2ccccc2Cl)cc1,"inconclusive: 7.08 µM [inhibitor, partial curve, poor fit]",–
CCNC(=O)NC(=O)C(C)OC(=O)c1cc(-c2cccs2)nc2ccccc12 (stereo unspecified),"inconclusive: 28.2 µM [inhibitor, single point]",–
CC(=O)N1CCN(c2ccc(Nc3ncnc4c3oc3ccccc34)cc2)CC1,"inconclusive: 31.6 µM [inhibitor, partial curve, poor fit]",–
O=C(C1=C(O)C(=O)N(CCc2ccccc2)C1c1cccs1)c1ccco1 (stereo unspecified),"inconclusive: 50.1 µM [inhibitor, partial curve, poor fit]",–
COc1cc(C=C2C(=O)c3ccccc3C2=O)cc(OC)c1,–,inactive: -8.37%
CCCC(=O)N1Cc2ccccc2CC2(CCN(Cc3ccncc3)C2)C1 (stereo unspecified),"inconclusive: 31.6 µM [inhibitor, full curve]",–
Cc1nc2scc(C)n2c(=O)c1S(=O)(=O)Nc1cccc(O)c1,–,inactive: -13.8%
Cc1cc(C)n(Cc2ccccc2Cl)n1,"inconclusive: 0.631 µM [inhibitor, full curve, poor fit]",–
Cc1ccc(CNC(=O)c2nnn(-c3cccc(C)c3)c2N)cc1,"inconclusive: 100 µM [inhibitor, single point]",–
CNC(=O)NC(=O)CNC(c1ccccc1)c1ccccc1,–,inactive: -31.1%
Cn1cnc(C(=O)N2CCCCCCn3c(nnc3-c3ccc(F)cc3)CC2)c1,"inconclusive: 10 µM [inhibitor, partial curve, poor fit]",–
Cc1ccc2nc3n(c(=O)c2c1)-c1cc(Cl)ccc1C(=O)NC3Cc1ccccc1 (stereo unspecified),"inconclusive: 35.5 µM [inhibitor, full curve, poor fit]",–
CN(C)c1ccc(CN2CCC(C(=O)NC(c3ccc(F)cc3)c3ccc4ccccc4n3)CC2)cc1 (stereo unspecified),"inconclusive: 50.1 µM [inhibitor, single point]",–
CC(=NNC(=S)Nc1ccccc1Cl)c1ccccn1,"inconclusive: 89.1 µM [inhibitor, partial curve, poor fit]",–
CCCCCCCCn1ccc(=N)cc1,"inconclusive: 1 µM [inhibitor, full curve]",–
Cc1oc2cc(OCCN3CCN(CCO)CC3)ccc2c(=O)c1-c1ccc(Cl)cc1,–,inactive: 0.622%
